Counter-ions that a name gives are not always drawn. The list shows a part of the results. Hit calls seldom repeat between salt and free forms of one compound.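 Kinases, fused to nanoluciferase, were expressed in K562 cells; luminescence was measured every 4 h from 2 to 18 h as percent of control (DMSO = 100%, positive control = 0%). A time point is decreased if signal falls significantly (2 sigma). Hits were called by the authors by a rule that is not shown; the count of time points alone does not decide it.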
Target: EGFR_L861Q (UniProt P00533)
Experiment: kinase-Nluc reporter destabilization hit call (1 = scored as downregulated) (binary); higher = compound decreases kinase abundance
Details: K562; 2-18 h

kinase-Nluc reporter destabilization hit call, inactive:
O=c1cc(-c2ccc(O[C@@H]3O[C@H](CO)[C@@H](O)[C@H](O)[C@H]3O)cc2)oc2cc(O)c([C@@H]3O[C@H](CO)[C@@H](O)[C@H](O)[C@H]3O[C@@H]3OC[C@H](O)[C@H](O)[C@H]3O)c(O)c12 [Vaccarin] (10 µM) 0
O=CN1CCN(c2ccc(C=C3C(=O)Nc4ccccc43)cc2)CC1 (10 µM) 0
COc1ccc(Cl)cc1N(CC(=O)Nc1ccc2c(c1)OCO2)S(=O)(=O)c1ccccc1 (2.5 µM) 0
CCc1c(C(=O)NNC(=O)[C@H](O)c2cc(F)cc(F)c2)ccc(O)c1C (10 µM) 0
CN(C)CCn1cc2cc(NC(=O)c3cccc(C(F)(F)F)n3)c(C(C)(C)O)cc2n1 (10 µM) 0
CCC[C@H](C)Oc1nc(N)c2[nH]c(=O)n(CCCCCN3CCCCC3)c2n1 (10 µM) 0
CCOC(=O)c1c(C)[nH]c(C=C2C(=O)Nc3ccccc32)c1C (10 µM) 0
Cc1ccc(NC(=O)N2CCN(c3nc(N)nc4sc(-c5cccnc5)nc34)CC2)cc1 [PI4KIII beta inhibitor 3] (10 µM) 0
CS[C@@]1(C(=O)Nc2ccc3[nH]nc(-c4ccc(OC(C)C)nc4)c3c2)CCN(CC(=O)N2CC=C(c3ccc(-c4ncn(C)n4)cc3)CC2)C1 (2.5 µM) 0
O=C(Nc1ccc(Cl)cc1)C1CN(C(=O)c2cccc(-c3ccco3)c2)CC(F)(F)C1 (stereo not drawn) (2.5 µM) 0
Nc1ccc(Sc2nc3ccccc3s2)c(Cl)c1 [KRAS inhibitor-9] (10 µM) 0
Cn1c(N2CCO[C@@H](c3ccc(F)cc3)C2)nc(-c2ccncn2)cc1=O (10 µM) 0
COc1ccc(CN2CCC(c3ccc4nc(C(=O)N5CCN(Cc6ccc(C(F)(F)F)cc6)CC5)[nH]c4c3)CC2)cn1 (2.5 µM) 0
O=C(O)c1c[nH]c2cc(Cl)c(-c3ccc(C4(O)CCC4)cc3)cc12 (10 µM) 0
CC(C)(Oc1ccc(Cl)cc1)C(=O)Nc1ccc(OCc2ccc(C#N)cc2)cc1 [AMPK activator 4] (10 µM) 0
O=C(NCc1ccn[nH]1)c1cc([C@@H]2CCNC[C@H]2COc2ccc3c(c2)OCO3)ccc1F [GRK2-IN-1 (hydrochloride)] (10 µM) 0
Cc1cnc(Cl)nc1-c1ccc(N(Cc2ccc(CNC(=O)C(F)F)cc2)C(=O)c2ccc(O)cc2O)cc1 (10 µM) 0
CC1=C(C#N)C(c2ccc3[nH]nc(C)c3c2)C(C#N)=C(C)N1 (10 µM) 0
CN(C[C@@H]1COCCO1)S(=O)(=O)Nc1ccc2ccc3ncc(-c4cnn(C)c4)cc3c(=O)c2c1 (2.5 µM) 0
CC(=O)Nc1nc(C)c(-c2cc(C)c3c(c2)CN([C@@H](C)C2CC2)C3=O)s1 (10 µM) 0
O=C(Nc1ccccc1C(=O)NC1CCCCNC1=O)c1cc2ccccc2s1 (stereo not drawn) (10 µM) 0
CO[C@]1(C(=O)N[C@@H](C)c2ccc(-n3cc(F)cn3)nc2)CC[C@H](c2nc(C)cc(Nc3cc(C)[nH]n3)n2)CC1 [Pralsetinib] (10 µM) 0
O=[N+]([O-])c1ccc(-c2nc(-c3ccc(F)cc3)c(-c3ccncc3)[nH]2)cc1 (10 µM) 0
CC(ONC(=O)c1cc(C(F)(F)F)cc(C(F)(F)F)c1)C(=O)Nc1ccc(Cl)cc1 (stereo not drawn) (2.5 µM) 0
Cc1cncc2cccc(S(=O)(=O)N3CCCNC[C@@H]3C)c12 [H-1152 (dihydrochloride)] (10 µM) 0
Cc1nc(NC(=O)N2CCC[C@H]2C(N)=O)sc1-c1ccnc(C(C)(C)C(F)(F)F)c1 [Alpelisib] (2.5 µM) 0
CCCCNc1ncc2c(-c3ccc(F)cc3)nn(CC3CCC(N)CC3)c2n1 (stereo not drawn) (2.5 µM) 0
CS(=O)(=O)c1ccc([C@@H](CC2CCCC2)C(=O)Nc2nccs2)cc1 (10 µM) 0
CO/N=C1/C(c2c(O)[nH]c3cc(Cl)c(Cl)cc23)=Nc2ccccc21 (10 µM) 0
CNCc1ccccc1Sc1cccc2ccccc12 [IFN alpha-IFNAR-IN-1 (hydrochloride)] (10 µM) 0
C=CC(=O)N1CCC(c2ccc(C(N)=O)c(-c3ccc(Oc4ccccc4)cc3)n2)CC1 [Orelabrutinib] (2.5 µM) 0
Cc1cc2c(F)c(Oc3ncnn4cc(OC[C@@H](C)OC(=O)[C@H](C)N)c(C)c34)ccc2[nH]1 [Brivanib (alaninate)] (10 µM) 0
CCC(F)(F)c1cc(N2CCC(S(C)(=O)=O)CC2)nc2sc(C(N)=O)c(N)c12 (10 µM) 0
NC(=O)c1c(NC(=O)C2CC2)sc2c1CCCC2 (10 µM) 0
CC(C)=CCC[C@](C)(O[C@@H]1O[C@H](CO[C@@H]2O[C@H](CO)[C@@H](O)[C@H](O)[C@H]2O)[C@@H](O)[C@H](O)[C@H]1O)[C@H]1CC[C@]2(C)[C@@H]1[C@H](O)C[C@@H]1[C@@]3(C)CC[C@H](O[C@@H]4O[C@H](CO)[C@@H](O)[C@H](O)[C@H]4O[C@@H]4O[C@H](CO)[C@@H](O)[C@H](O)[C@H]4O)C(C)(C)[C@@H]3CC[C@]12C [Ginsenoside Rb1] (10 µM) 0
COc1cccc(-c2cc(=O)c3ccccc3o2)c1N (10 µM) 0
C[C@@H]1COC(Nc2ccc3ncnc(Nc4ccc(OCc5nccs5)c(Cl)c4)c3c2)=N1 [Varlitinib] (10 µM) 0
Cc1nc(Nc2cnn(C3CCNCC3)c2)nc2c1N(C)C(=O)c1cc3ccccc3cc1N2C (2.5 µM) 0

Structures listed so far that contain an aryl methoxy group (3):
kinase-Nluc reporter destabilization hit call, inactive:
COc1ccc(Cl)cc1N(CC(=O)Nc1ccc2c(c1)OCO2)S(=O)(=O)c1ccccc1 (2.5 µM) 0
COc1ccc(CN2CCC(c3ccc4nc(C(=O)N5CCN(Cc6ccc(C(F)(F)F)cc6)CC5)[nH]c4c3)CC2)cn1 (2.5 µM) 0
COc1cccc(-c2cc(=O)c3ccccc3o2)c1N (10 µM) 0
